PubChem BioAssay AID504791 – Drosophila RNAi Screening Center, 2011

Assay: 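Genes of the fly required for silencing by miRNA, siRNA or endo-siRNA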 (primary screen)
Cells: Drosophila S2-derived reporter cells
Knock-down reagent: long dsRNA against Drosophila genes, about 150-250 ng dsRNA per well (siRNA assay); about 80-120 ng (miRNA assay)
Timing: about 5 days (siRNA assay); about 4 days (miRNA assay)
Conditions: copper sulfate induction of reporters: 25 µM (siRNA assay); 200 mM stated (miRNA assay), 1-2 days before reading
Measurement: 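Per-well ratio of Renilla over firefly light, expressed relative to that plate's average ratio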
Hit rule: 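a well was a first-pass pick when its plate-scaled ratio rose above 1.5 (siRNA assay) or 1.6 (miRNA assay), or dropped below 0.6; a gene counted only if two separate dsRNAs agreed on retest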
The screen tested about 23,000 reagents; below is an unselected part of those that have a named target and a result. Of all reagents, 199 (0.86%) are marked active. 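Plate-scaled ratios behind the calls are not deposited; printed light signals are raw; many rows marked increased or decreased are still called inactive.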 A number with no mark means an inactive call. Names joined by + are all predicted targets of the reagent. The record does not give: the direction of the score.

gene knocked down | PubChem SID | stable siRNA reporter change | miRNA reporter change | stable assay Renilla, run 1 (luminescence) | stable assay firefly, run 1 (luminescence)
nan | SID104190343 | – | – | 7519 | 3.90e5
Tusp | SID104195630 | – | – | 6447 | 5.39e5
CG3588 | SID104198265 | – | – | 5363 | 3.27e5
ND-18 | SID104199233 | – | – | 5202 | 3.42e5
lncRNA:noe | SID104202119 | – | reporter ratio raised past the hit cutoff (active) | 4303 | 3.92e5
Herp | SID104182186 | – | – | 40732 | 4.75e5
CG12661 | SID104197656 | – | – | 6251 | 3.96e5
GlcT | SID104184317 | – | – | 17051 | 5.75e5
CG12480 | SID104199252 | – | – | 5628 | 6.12e5
CG7991 | SID104188401 | – | – | 5607 | 3.03e5
Z600 | SID104191109 | – | – | 7302 | 4.83e5
Elo68beta | SID104189652 | – | – | 5962 | 4.51e5
CG6870 | SID104182790 | – | – | 7006 | 3.55e5
CG10195 | SID104181818 | – | – | 6519 | 3.76e5
Yp1 | SID104198523 | – | – | 4224 | 3.07e5
CG8051 | SID104199869 | – | – | 5850 | 3.30e5
CG32984 | SID104201306 | – | – | 9758 | 4.69e5
colt | SID104180600 | – | – | 39182 | 4.07e5
CG12521 | SID104189685 | – | – | 5911 | 4.53e5
CG4390 | SID104195364 | – | – | 10345 | 3.66e5
Obp83ef | SID104192060 | – | – | 6190 | 3.31e5
CG12716 | SID104199285 | – | – | 5147 | 5.56e5
CG17472 | SID104182414 | – | – | 7921 | 5.67e5
Pym | SID104201946 | – | – | 2171 | 2.31e5
Pym | SID104202374 | – | – | 4223 | 3.40e5
ND-13B | SID104190435 | – | – | 5611 | 4.31e5
Ir47a | SID104186007 | – | – | 6591 | 3.71e5
CG42380 + CG42379 + PIG-M + 1 more | SID104183676 | – | – | 5358 | 3.70e5
CG42380 + CG42379 + PIG-M + 1 more | SID104184372 | – | – | 10254 | 6.90e5
CG15071 | SID104186296 | – | – | 6875 | 3.26e5
CG1354 | SID104197694 | – | – | 5507 | 4.25e5
Unr | SID104190553 | – | – | 8658 | 4.01e5
Son | SID104196192 | – | – | 5656 | 4.57e5
CG15594 | SID104192072 | – | – | 6659 | 4.40e5
CG7017 | SID104190554 | – | – | 5886 | 4.07e5
mh | SID104199960 | – | – | 6144 | 4.54e5
CG13793 | SID104182089 | – | – | 8814 | 4.93e5
CG31122 | SID104194579 | – | – | 4787 | 2.86e5
CG31122 | SID104196078 | – | – | 7030 | 2.45e5
prd1 | SID104195019 | – | – | 5096 | 2.93e5
AsnRS | SID104181782 | – | – | 8298 | 1.75e6
CG14500 | SID104186263 | – | – | 7136 | 4.84e5
VhaSFD | SID104183263 | – | – | 1.37e5 | 2.07e6
Chro | SID104191422 | – | – | 8091 | 3.28e5
Calx | SID104193249 | – | – | 4555 | 4.04e5
Calx | SID104193251 | – | – | 3404 | 3.46e5
Calx | SID104196391 | – | – | 9093 | 4.79e5
Calx | SID104201495 | – | – | 11407 | 5.89e5
wntD | SID104196215 | – | – | 7639 | 4.28e5
GPHR | SID104186867 | – | – | 6751 | 3.50e5
Acp26Ab | SID104181648 | – | – | 7966 | 5.05e5
GluRIIE | SID104193223 | – | – | 4863 | 4.58e5
CARPA | SID104197697 | – | – | 5898 | 3.23e5
CARPA | SID104201326 | – | – | 9341 | 5.63e5
CG3165 | SID104180365 | – | – | 57942 | 81252
Orai | SID104185476 | – | – | 6027 | 3.56e5
Orai | SID104201637 | – | – | 9614 | 5.62e5
yellow-e2 | SID104194961 | – | – | 7038 | 4.06e5
teq | SID104190090 | – | – | 6619 | 4.78e5
teq | SID104191093 | – | – | 6692 | 4.01e5
teq | SID104191094 | – | – | 7226 | 3.76e5
tsr | SID104184510 | – | – | 5343 | 3.25e5
sim | SID104196846 | – | – | 6994 | 4.09e5
ZnT41F | SID104184642 | – | – | 8106 | 1.22e6
Ate1 | SID104185717 | reporter ratio raised past the hit cutoff | – | 23317 | 4.27e5
CG15369 | SID104197833 | – | – | 4495 | 3.76e5
CG32301 | SID104188405 | – | – | 5599 | 3.21e5
CG10151 | SID104185766 | – | – | 7350 | 3.71e5
CG34396 | SID104184037 | – | – | 7358 | 6.34e5
CG34396 | SID104184038 | – | – | 7826 | 5.12e5
aspr | SID104200481 | – | – | 5502 | 3.91e5
aspr | SID104200482 | – | reporter ratio raised past the hit cutoff | 6539 | 4.20e5
CG13227 | SID104186139 | – | – | 5678 | 5.07e5
CG32295 | SID104202616 | reporter ratio raised past the hit cutoff | – | 6895 | 3.09e5
l(2)k14505 | SID104182898 | – | – | 30377 | 5.57e5
18w | SID104184821 | – | – | 9420 | 2.87e5
Ggamma1 | SID104187227 | – | – | 7886 | 3.41e5
Mkrn1 | SID104191662 | – | – | 5224 | 5.66e5
CG6984 | SID104186805 | – | – | 11314 | 5.55e5
CG1622 | SID104199537 | – | – | 7646 | 4.77e5
PIG-H + Kmn2 | SID104192445 | – | – | 7510 | 4.65e5
Pbgs | SID104189510 | – | – | 6595 | 4.04e5
RpL10Ab | SID104190590 | – | – | 6199 | 2.82e5

Entries listed above with an active call:
gene knocked down | PubChem SID | stable siRNA reporter change | miRNA reporter change | stable assay Renilla, run 1 (luminescence) | stable assay firefly, run 1 (luminescence)
lncRNA:noe | SID104202119 | – | reporter ratio raised past the hit cutoff (active) | 4303 | 3.92e5
